The whole screen tested about 580,000 compounds, of which about 6,100 (1.1%) were called active. The shares of active, inactive and inconclusive entries below differ from those in the screen. Calls come from the whole dose curve; as a rule, active = well fitted inhibition curve with a large enough effect; inconclusive = small, poorly fitted or top-dose-only effect, or another doubt; inactive = no such curve, though single readings can be large or run the other way. A potency beside an inconclusive call is a rough fit, not a confirmed value.
Biological target: Polyunsaturated fatty acid lipoxygenase ALOX12 (Homo sapiens) (UniProt P18054)
Experiment: Primary qHTS assay for inhibitors of human arachidonate 12S-lipoxygenase (ALOX12): Round 2
Details: purified 12hLO, xylenol orange hydroperoxide absorbance; activity change, negative = inhibition: at 108 µM (top of the series) unless noted
How it was run: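 Purified human 12hLO (150 nM final) in 25 mM Hepes, 0.01% Triton X-100, pH 7.0 was preincubated 15 min at room temperature with compound. Then 40 uM arachidonic acid was added, 30 min. Hydroperoxide was read by Fe-XO absorbance ratio 573/405 nm.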
% is set by controls: 0 for no effect and ±100 for the full control effect; potency is the fitted concentration of half-maximal effect.

Chains of the proteins cited; added tags and fusions are not shown. Lines headed by an entry give the natural chain unless they say otherwise; changes in a name come on top.
UniProt P18054: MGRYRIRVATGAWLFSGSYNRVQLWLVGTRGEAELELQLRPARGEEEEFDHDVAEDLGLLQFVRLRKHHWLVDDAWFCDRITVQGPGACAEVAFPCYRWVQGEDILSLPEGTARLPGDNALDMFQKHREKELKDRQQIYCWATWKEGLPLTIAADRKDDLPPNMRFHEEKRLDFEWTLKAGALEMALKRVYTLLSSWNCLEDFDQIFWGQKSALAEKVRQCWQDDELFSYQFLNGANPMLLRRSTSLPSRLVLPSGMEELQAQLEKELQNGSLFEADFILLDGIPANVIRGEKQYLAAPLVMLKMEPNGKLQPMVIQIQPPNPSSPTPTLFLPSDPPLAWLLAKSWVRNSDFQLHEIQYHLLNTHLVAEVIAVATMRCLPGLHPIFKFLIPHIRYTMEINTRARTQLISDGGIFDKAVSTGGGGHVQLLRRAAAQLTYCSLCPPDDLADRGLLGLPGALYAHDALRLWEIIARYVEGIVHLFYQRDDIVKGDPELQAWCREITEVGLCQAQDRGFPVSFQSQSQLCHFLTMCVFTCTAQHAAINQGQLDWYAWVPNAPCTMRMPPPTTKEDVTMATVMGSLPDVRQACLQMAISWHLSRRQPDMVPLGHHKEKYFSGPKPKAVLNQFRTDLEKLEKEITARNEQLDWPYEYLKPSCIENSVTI

SMILES | Potency | activity change, negative = inhibition
Cc1ccc(NC(=O)C2CCN(S(=O)(=O)c3c(C)noc3/C=C/c3ccco3)CC2)nc1 | inconclusive: 44.7 µM [inhibitor, partial curve, poor fit] | –
O=C(Cn1ncc2c3ccccc3n(Cc3ccccc3)c2c1=O)NCc1ccccc1 | inconclusive: 141 µM [inhibitor, partial curve, poor fit] | –
Fc1ccc(-c2nc3n(c2-c2ccncc2)CCS3)cc1 | inconclusive: 7.08 µM [inhibitor, full curve, poor fit] | –
CCc1ccc(S(=O)(=O)c2nnn3c2nc(N2CCN(CC)CC2)c2sccc23)cc1 | inconclusive: 89.1 µM [inhibitor, partial curve, poor fit] | –
CC1=C(C(=O)OCCc2ccccc2)C(c2cccc(O)c2)C2=C(CCCC2=O)N1 (stereo not given) | inconclusive: 50.1 µM [inhibitor, partial curve, poor fit] | –
O=C(Nc1ccc(Cl)cc1)[C@@H]1[C@@H]2C(=O)N(c3ccc4ccccc4c3)C(=O)[C@@H]2[C@H]2C=CC=NN21 | active: 17.8 µM | –
O=C(NCc1ccco1)NC(=O)c1csc([N+](=O)[O-])c1 | inconclusive: 100 µM [inhibitor, partial curve, poor fit] | –
COc1ccccc1C(=O)Nc1ccc(-c2nc3cc(C)cc(C)c3o2)cc1 | inconclusive: 141 µM [inhibitor, partial curve, poor fit] | –
Cc1ccc(NC(=O)CSc2nc3ccc(NC(=O)c4cccc(Cl)c4)cc3s2)c(C)c1 | inconclusive: 141 µM [inhibitor, partial curve, poor fit] | –
CC(C)NC(=O)C[C@@H]1O[C@H](CNCc2cccc(Cl)c2)[C@@H](O)[C@H]1O | inconclusive: 28.2 µM [inhibitor, partial curve, poor fit] | –
CCn1c2c(c(=N)c3ccccc31)CCC2 | inactive | –
CC(C)NC(=O)C(C)Sc1ncnc2ccccc12 (stereo not given) | inconclusive: 63.1 µM [inhibitor, partial curve, poor fit] | –
COc1ccccc1C(=O)N1CCC(c2c[nH]c3ccccc23)(c2c[nH]c3ccccc23)CC1 | inconclusive: 141 µM [inhibitor, partial curve, poor fit] | –
CCN1C(=O)[C@H]2[C@@H](c3ccc(-c4ccc(Cl)c(Cl)c4)cc3)N[C@@](CC(C)C)(C(=O)OC)[C@H]2C1=O | inactive | –
O=C(O)C/C(=C\c1cc(Br)cs1)c1nc2ccccc2o1 | inconclusive: 50.1 µM [inhibitor, partial curve, poor fit] | –
COc1ccccc1NC(=O)N(C)C[C@H]1OCc2cn(nn2)CCCC(=O)N([C@@H](C)CO)C[C@@H]1C | inactive | –
CCN(CC)c1ccc(NC(=O)c2[nH]c(C)c(C(C)=O)c2C)c(C)c1 | inconclusive: 44.7 µM [inhibitor, partial curve, poor fit] | –
COCCn1c(=O)c(CCc2ccccc2)nc2cnc(Oc3ccc(OC)cc3)nc21 | inconclusive: 39.8 µM [inhibitor, single point] | –
CC(C)c1ccc(S(=O)(=O)Nc2cc3c(cc2NCc2ccccc2)n(C)c(=O)n3C)cc1 | inconclusive: 50.1 µM [inhibitor, partial curve, poor fit] | –
COc1ccc(CCNC(=O)c2cc3cccc4c3n2CC(C)S4)c(OC)c1OC (stereo not given) | inconclusive: 141 µM [inhibitor, partial curve, poor fit] | –
COCCCNC(=S)N1CCN(c2nc(C)nc3sc4c(c23)CCCC4)CC1 | inactive | –
O=C(c1nnn2cc(-c3ccc(F)cc3)[nH]c(=O)c12)N1CCCCC1 | inconclusive: 17.8 µM [inhibitor, partial curve, poor fit] | –

Structures listed so far that contain an aryl thioether with sulfur outside any ring, in the order listed:
SMILES | Potency | activity change, negative = inhibition
Cc1ccc(NC(=O)CSc2nc3ccc(NC(=O)c4cccc(Cl)c4)cc3s2)c(C)c1 | inconclusive: 141 µM [inhibitor, partial curve, poor fit] | –
CC(C)NC(=O)C(C)Sc1ncnc2ccccc12 (stereo not given) | inconclusive: 63.1 µM [inhibitor, partial curve, poor fit] | –

Later entries:

SMILES | Potency | activity change, negative = inhibition
Cc1cc(C)c2c(CN3CCN(Cc4ccccc4)CC3)cc(=O)oc2c1C | inconclusive: 6.31 µM [inhibitor, full curve, poor fit] | –
CCCN(C)c1ccc(/C=N/NC(=S)Nc2cccc(C)c2)cc1 | inconclusive: 141 µM [inhibitor, partial curve, poor fit] | –
O=C(NNC(=O)c1cccs1)c1ccco1 | inactive | –
CC(C)(C)c1cnnn1-c1ccc(C(=O)CCl)cc1 | inconclusive: 11.2 µM [inhibitor, full curve, poor fit] | –
CC(=O)Oc1ccc2c(C)c(CCC(=O)NCc3nc(-c4ccccc4)no3)c(=O)oc2c1 | inactive | –
O=C(CSc1nc2cc([N+](=O)[O-])ccc2o1)NCCCc1ccccc1 | inconclusive: 28.2 µM [inhibitor, partial curve, poor fit] | –
CC(NC(=O)COc1ccc([N+](=O)[O-])cc1)c1ccccc1 (stereo not given) | inactive | –
COc1ccc(NC(=O)CSc2nc(O)cc(=O)n2-c2ccccc2OC)cc1 | inconclusive: 6.31 µM [inhibitor, full curve, poor fit] | –
Cc1ccc(C(=O)N2CCC3(CC2)CC(N(Cc2ccccc2)C2CC2)CCO3)s1 (stereo not given) | inconclusive: 31.6 µM [inhibitor, partial curve] | –
c1cc2ccc(CNC3CC3)cc2[nH]1 | inconclusive: 35.5 µM [inhibitor, single point] | –
O=C(O)c1ccc(C(=O)C2CCCCC2C(=O)O)cc1 (stereo not given) | inconclusive: 35.5 µM [inhibitor, partial curve, poor fit] | –
COc1cccc(NC(=O)[C@@H]2C[C@@H](O)CN2C2CCN(C(=O)c3cccc(OC)c3)CC2)c1 | inactive | –
CCOc1ccccc1C1CC(c2cccc(NS(C)(=O)=O)c2)=NN1C(=O)c1ccco1 (stereo not given) | inconclusive: 56.2 µM [inhibitor, single point] | –
O=c1[nH]c(CN2CCCCCCC2)nc2c(Br)cc(Br)cc12 | inconclusive: 56.2 µM [inhibitor, single point] | –
C/C(=N\N(Cc1ccccc1)c1ccccc1)c1cccnc1 | inconclusive: 112 µM [inhibitor, single point] | –
O=C(Nc1ccc(C(F)(F)F)cc1)c1ccc2ncsc2c1 | inconclusive: 39.8 µM [inhibitor, partial curve, poor fit] | –
O=C(OCc1cn([C@@H]2C[C@H](c3ccccc3)N(C(=O)c3cccs3)C[C@H]2O)nn1)c1ccccc1 | inconclusive: 39.8 µM [inhibitor, partial curve, poor fit] | –
COc1ccc2ccccc2c1CN1CCN(Cc2ccccc2)CC1 | inactive | –
CCN1CCN(C(=S)NC(C)c2ccccc2)CC1 (stereo not given) | inconclusive: 2.24 µM [inhibitor, full curve] | –
COc1cc(C(=O)NC(c2ccccc2)c2ccccc2)cc(OC)c1OC | inconclusive: 70.8 µM [inhibitor, partial curve, poor fit] | –
CCOC(=O)c1cnc2c(C)c(Cl)ccc2c1N1CCN(CC)CC1 | inconclusive: 50.1 µM [inhibitor, partial curve, poor fit] | –
CCCCNC(=S)NCCCC | inconclusive: 44.7 µM [inhibitor, partial curve, poor fit] | –

SMILES | Potency | activity change, negative = inhibition
Cc1ccc2[nH]c3nc(NN)nnc3c2c1 | inconclusive: 39.8 µM [inhibitor, partial curve, poor fit] | –
NC(=S)N/N=C/c1ccc(-c2ccc(Cl)c(Cl)c2)o1 | inconclusive: 28.2 µM [inhibitor, partial curve, poor fit] | –
Cc1ccc(N(C(C)C(=O)N2CCCC2)S(C)(=O)=O)cc1C (stereo not given) | inactive | –
Nc1ccc(C(=O)NCC(=O)O)cc1 | inactive | –
CS(=O)(=O)/C(=C\c1cccc(Cl)c1)C(=O)c1ccccc1 | inconclusive: 39.8 µM [inhibitor, partial curve] | –
COc1ccc(-c2nc(CCNC(=O)Cc3ccc(F)cc3)cs2)cc1 | inactive | –
O=C(NNc1ccc([N+](=O)[O-])cc1)C1CC1c1ccccc1 (stereo not given) | inconclusive: 50.1 µM [inhibitor, partial curve, poor fit] | –
COc1cc([N+](=O)[O-])ccc1N/C=C/C(=O)c1cccs1 | inactive | –
CCCCN(Cc1ccccc1)C1CCN(Cc2ccccc2)CC1 | inconclusive: 25.1 µM [inhibitor, partial curve, poor fit] | –
CS(=O)(=O)N1CCC2(CCN(Cc3nccs3)CC2)CC1 | inactive | –
Cc1cc(C)n(-c2ccc(C(=O)OCC(=O)NC(=O)NC3CCCCC3)cc2)n1 | inconclusive: 39.8 µM [inhibitor, partial curve, poor fit] | –
Cc1[nH]nc2c1C(c1ccc(N(C)C)cc1)C1=C(CC(C)(C)CC1=O)N2 (stereo not given) | inactive | –
O=C1CSC(c2ccc(Cl)cc2)N1C1CCCCC1 (stereo not given) | – | inconclusive: -30.4% [inhibitor]
Cc1ccc(C2C3=C(CCCC3=O)Nc3[nH]n(-c4ccccc4)c(=O)c32)cc1 (stereo not given) | inconclusive: 3.55 µM [inhibitor, full curve, poor fit] | –
COc1cc([N+](=O)[O-])ccc1NC(=O)C1C2C=CC(C2)C1C(=O)O (stereo not given) | inactive | –
COc1cc(NC(=O)Cn2ccn3nc(-c4ccccc4)c(CO)c3c2=O)cc(OC)c1OC | inactive | –
O=C(NCCc1ccc(Cl)cc1)c1cc(-c2ccccn2)nc2ccccc12 | inactive | –
O=C(CSc1ccc([N+](=O)[O-])cn1)Nc1ccc2[nH]c(=O)[nH]c2c1 | inconclusive: 44.7 µM [inhibitor, partial curve, poor fit] | –
CC(=O)N1CCCC(c2[nH]ccc2C(=O)N2CCN(c3ncccn3)CC2)C1 (stereo not given) | inactive | –
CCCN1CN=C(Nc2nc3ccccc3o2)NC1 | inconclusive: 35.5 µM [inhibitor, single point] | –
CCCN1CCC(=O)N([C@H](CSc2ccc(C)cc2)c2ccccc2)CC1 | inactive | –
